Reference: PubChem BioAssay AID743121 (NCATS, 2013)

Purpose: 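Knock-downs that sensitise breast cancer cells to camptothecin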 (primary screen)
Cells: MDA-MB-231 cells, a human breast cancer line
Knock-down reagent: single siRNA against human genes, 20 nM siRNA (0.8 pmol per well)
Duration: 120 h (drug added 48 h after transfection, read 72 h later)
Challenge: camptothecin 20 nM (about EC30) for 72 h; vehicle 0.1% DMSO in parallel plates
Read-out: 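Cell viability by ATP luminescence (CellTiter-Glo) as % of non-targeting siRNA wells, and the log2 ratio of viability without drug over viability with camptothecin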
Reading the numbers: log2 vehicle/camptothecin viability: higher = stronger sensitisation to camptothecin; viability with camptothecin and viability without drug: higher = more viable cells
Active means: 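Each gene scored by redundant siRNA activity (RSA) over its individual siRNA ratios; a gene is called active at p < 0.001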
The whole screen tested about 26,000 reagents; this is a part drawn at random. 167 of all reagents (0.63%) count as active. 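Calls are per gene from RSA p-values that are not deposited; an individual active-marked siRNA can sensitise only weakly.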 The numbers tell different reagents against one gene apart.

| Gene | siRNA no. | log2 vehicle/camptothecin viability | viability with camptothecin (% of control) | viability without drug (% of control) | Outcome |
| --- | --- | --- | --- | --- | --- |
| ACR (GeneID 49) | 1 | 0.153 | 63.9 | 71 | inactive |
| ACR (GeneID 49) | 2 | -0.14 | 52.5 | 47.7 | inactive |
| ACR (GeneID 49) | 3 | 0.324 | 49 | 61.3 | inactive |
| GFI1 (GeneID 2672) | 1 | 0.692 | 33.1 | 53.4 | inactive |
| GFI1 (GeneID 2672) | 2 | 0.0313 | 95.6 | 97.7 | inactive |
| GFI1 (GeneID 2672) | 3 | -0.113 | 104 | 95.8 | inactive |
| GFI1 (GeneID 2672) | 4 | -0.134 | 89 | 81.1 | inactive |
| PHKG2 (GeneID 5261) | 1 | -0.386 | 30.1 | 23 | inactive |
| PHKG2 (GeneID 5261) | 2 | -0.449 | 92.3 | 67.7 | inactive |
| PHKG2 (GeneID 5261) | 3 | -0.0249 | 75.8 | 74.5 | inactive |
| PHKG2 (GeneID 5261) | 4 | -0.286 | 89.7 | 73.6 | inactive |
| MMP7 (GeneID 4316) | 1 | -0.293 | 30.7 | 25.1 | inactive |
| MMP7 (GeneID 4316) | 2 | -0.497 | 78.1 | 55.4 | inactive |
| MMP7 (GeneID 4316) | 3 | -0.408 | 93.2 | 70.2 | inactive |
| MMP7 (GeneID 4316) | 4 | 0.0168 | 95.9 | 97.1 | inactive |
| GCDH (GeneID 2639) | 1 | 0.0733 | 67.7 | 71.3 | inactive |
| GCDH (GeneID 2639) | 2 | 0.0918 | 42.1 | 44.9 | inactive |
| GCDH (GeneID 2639) | 3 | -0.547 | 72.7 | 49.7 | inactive |
| GCDH (GeneID 2639) | 4 | -0.412 | 82.2 | 61.8 | inactive |
| OR3A1 (GeneID 4994) | 1 | -0.309 | 62.3 | 50.3 | inactive |
| OR3A1 (GeneID 4994) | 2 | -0.0446 | 67.4 | 65.3 | inactive |
| OR3A1 (GeneID 4994) | 3 | -0.174 | 108 | 95.7 | inactive |
| OR3A1 (GeneID 4994) | 4 | 0.545 | 29.1 | 42.5 | inactive |
| TAP2 (GeneID 6891) | 1 | -0.103 | 75.1 | 69.9 | inactive |
| TAP2 (GeneID 6891) | 2 | 0.329 | 37.2 | 46.7 | inactive |
| TAP2 (GeneID 6891) | 3 | 0.755 | 43.1 | 72.8 | inactive |
| TAP2 (GeneID 6891) | 4 | 0.316 | 47.3 | 58.9 | inactive |
| GRK2 (GeneID 156) | 1 | -0.0973 | 81.5 | 76.1 | inactive |
| GRK2 (GeneID 156) | 2 | -0.455 | 86.8 | 63.3 | inactive |
| GRK2 (GeneID 156) | 3 | -0.298 | 55.3 | 45 | inactive |
| GRK2 (GeneID 156) | 4 | 0.715 | 25.1 | 41.3 | inactive |
| RAB4A (GeneID 5867) | 1 | 0.192 | 59.2 | 67.6 | inactive |
| RAB4A (GeneID 5867) | 2 | -0.337 | 98 | 77.6 | inactive |
| RAB4A (GeneID 5867) | 3 | -0.432 | 95.1 | 70.5 | inactive |
| RAB4A (GeneID 5867) | 4 | -0.125 | 56.4 | 51.7 | inactive |
| RFWD3 (GeneID 55159) | 1 | 0.0484 | 95.4 | 98.7 | inactive |
| RFWD3 (GeneID 55159) | 2 | -0.531 | 75.9 | 52.6 | inactive |
| RFWD3 (GeneID 55159) | 3 | -0.303 | 92.6 | 75 | inactive |
| RFWD3 (GeneID 55159) | 4 | 1.15 | 28.3 | 62.9 | inactive |
| KCNK16 (GeneID 83795) | 1 | -0.459 | 47.3 | 34.4 | inactive |
| KCNK16 (GeneID 83795) | 2 | 0.0362 | 99.4 | 102 | inactive |
| KCNK16 (GeneID 83795) | 3 | 0.0249 | 86.5 | 88 | inactive |
| KCNK16 (GeneID 83795) | 4 | -0.327 | 68.6 | 54.7 | inactive |
| COL9A1 (GeneID 1297) | 1 | -0.383 | 27.2 | 20.9 | inactive |
| COL9A1 (GeneID 1297) | 2 | -0.387 | 71.9 | 55 | inactive |
| COL9A1 (GeneID 1297) | 3 | 0.347 | 38.8 | 49.4 | inactive |
| COL9A1 (GeneID 1297) | 4 | -0.00901 | 86.1 | 85.5 | inactive |
| BTN2A1 (GeneID 11120) | 1 | -0.238 | 79.3 | 67.2 | inactive |
| BTN2A1 (GeneID 11120) | 2 | 0.244 | 68.9 | 81.6 | inactive |
| BTN2A1 (GeneID 11120) | 3 | 0.0564 | 58.9 | 61.2 | inactive |
| BTN2A1 (GeneID 11120) | 4 | -0.357 | 40.8 | 31.8 | inactive |
| PMS2P2 (GeneID 5380) | 1 | -0.305 | 105 | 85 | inactive |
| CR1 (GeneID 1378) | 1 | -0.245 | 102 | 85.8 | inactive |
| CR1 (GeneID 1378) | 2 | -0.219 | 89.6 | 77 | inactive |
| CR1 (GeneID 1378) | 3 | -1.14 | 54.4 | 24.7 | inactive |
| CR1 (GeneID 1378) | 4 | -0.48 | 88.9 | 63.7 | inactive |
| GTF2H3 (GeneID 2967) | 1 | -0.368 | 46.7 | 36.2 | inactive |
| GTF2H3 (GeneID 2967) | 2 | -0.229 | 95.6 | 81.6 | inactive |
| GTF2H3 (GeneID 2967) | 3 | 0.0498 | 115 | 119 | inactive |
| ELN (GeneID 2006) | 1 | -0.0622 | 74.6 | 71.4 | inactive |
| ELN (GeneID 2006) | 2 | -0.0938 | 49.2 | 46.1 | inactive |
| ELN (GeneID 2006) | 3 | -0.485 | 71.1 | 50.8 | inactive |
| ELN (GeneID 2006) | 4 | 0.293 | 62.5 | 76.5 | inactive |
| DBT (GeneID 1629) | 1 | -0.207 | 59.4 | 51.5 | inactive |
| DBT (GeneID 1629) | 2 | -0.129 | 121 | 111 | inactive |
| DBT (GeneID 1629) | 3 | -0.619 | 83.3 | 54.2 | inactive |
| SLC25A4 (GeneID 291) | 1 | -0.16 | 108 | 97 | inactive |
| SLC25A4 (GeneID 291) | 2 | -0.521 | 74.7 | 52.1 | inactive |
| SLC25A4 (GeneID 291) | 3 | 0.799 | 11.4 | 19.8 | inactive |

A run of entries from the list above, as a working copy:
| Gene | siRNA no. | log2 vehicle/camptothecin viability | viability with camptothecin (% of control) | viability without drug (% of control) | Outcome |
| --- | --- | --- | --- | --- | --- |
| KCNK16 (GeneID 83795) | 3 | 0.0249 | 86.5 | 88 | inactive |
| KCNK16 (GeneID 83795) | 4 | -0.327 | 68.6 | 54.7 | inactive |
| COL9A1 (GeneID 1297) | 1 | -0.383 | 27.2 | 20.9 | inactive |
| COL9A1 (GeneID 1297) | 2 | -0.387 | 71.9 | 55 | inactive |
| COL9A1 (GeneID 1297) | 3 | 0.347 | 38.8 | 49.4 | inactive |
| COL9A1 (GeneID 1297) | 4 | -0.00901 | 86.1 | 85.5 | inactive |
